## Primary screen of a compound library

Protein sequences, listed by entry. Tags and fused reporters are not part of them. Residues count along the entry.
UniProt Q8IDJ8, 1-583: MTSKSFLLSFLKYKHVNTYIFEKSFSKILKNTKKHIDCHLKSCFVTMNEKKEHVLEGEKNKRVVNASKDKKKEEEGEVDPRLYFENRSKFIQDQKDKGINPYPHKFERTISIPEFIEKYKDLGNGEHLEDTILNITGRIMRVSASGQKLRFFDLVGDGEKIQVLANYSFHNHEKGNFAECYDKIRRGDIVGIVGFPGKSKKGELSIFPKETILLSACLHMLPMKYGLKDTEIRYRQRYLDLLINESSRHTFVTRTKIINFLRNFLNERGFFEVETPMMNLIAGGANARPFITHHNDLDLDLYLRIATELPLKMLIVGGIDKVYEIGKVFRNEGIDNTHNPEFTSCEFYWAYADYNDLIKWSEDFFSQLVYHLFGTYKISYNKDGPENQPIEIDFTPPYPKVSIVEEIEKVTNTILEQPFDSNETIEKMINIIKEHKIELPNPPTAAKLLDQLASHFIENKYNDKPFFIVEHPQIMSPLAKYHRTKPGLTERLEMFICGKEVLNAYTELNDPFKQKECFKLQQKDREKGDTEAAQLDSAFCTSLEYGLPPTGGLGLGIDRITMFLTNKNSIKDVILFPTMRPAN
UniProt P9WNZ1, whole entry: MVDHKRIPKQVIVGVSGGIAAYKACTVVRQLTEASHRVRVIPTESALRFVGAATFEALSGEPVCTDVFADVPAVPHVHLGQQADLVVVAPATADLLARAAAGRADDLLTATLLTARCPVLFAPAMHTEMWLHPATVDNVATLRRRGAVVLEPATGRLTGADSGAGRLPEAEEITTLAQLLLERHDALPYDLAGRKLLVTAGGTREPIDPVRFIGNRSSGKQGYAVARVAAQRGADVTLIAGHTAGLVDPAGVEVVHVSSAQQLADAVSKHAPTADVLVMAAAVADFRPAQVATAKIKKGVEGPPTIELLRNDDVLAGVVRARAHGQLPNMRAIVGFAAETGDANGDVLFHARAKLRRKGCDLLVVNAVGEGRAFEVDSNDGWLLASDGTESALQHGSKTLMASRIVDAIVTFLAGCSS

Results are given as percent effect.
The controls that fix the scale are not given in the record; negative values are as filed.
The compounds are a random part of those screened.
A dash means the value is not listed here; it may have been measured.

PfKRS1: 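Lysine-tRNA ligase, Plasmodium falciparum 3D7 (UniProt Q8IDJ8). Enzyme assay of the cytosolic lysyl-tRNA synthetase in 384-well plates, read by luminescence. Compounds at 30 µM. Direction is inferred from only a few compounds that gave an IC50; most scored high, so higher reads as stronger inhibition. Of about 69,000 compounds tested this way, about 49 (0.071%) reached 50% or more in at least one test.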
Toxoplasma: 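Assay of Toxoplasma gondii numbers, read through their beta-galactosidase reporter with a colour substrate. Tested at 10 µM. Higher reads as fewer parasites (inferred from which compounds were picked for retests). Size under these conditions: about 67,000 compounds, about 260 of them at 50% or above in at least one test.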
CoaBC: 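Coenzyme A biosynthesis protein CoaBC, Mycobacterium tuberculosis (UniProt P9WNZ1). Enzyme assay of CoaBC with a phosphate dye (Biomol Green) read at 650 nm. Concentration: 30 µM. Higher reads as stronger inhibition, judged from the few compounds that gave an IC50. Most strong results did not repeat in a second test. About 67,000 compounds were tested under these conditions; 0.06% (about 40) showed 50% or more at least once.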

| # | Compound | PfKRS1 | Toxoplasma | CoaBC |
|---|---|---|---|---|
| 1 | `O=C(O)C(F)(F)F.[H][C@@]12CCN(c3cccnc3)C[C@]1([H])CN(C(=O)c1ccc(C)nc1)C2` | - | 1.437 | - |
| 2 | `Cn1cc(Br)cc(NC(=O)CC2CCC2)c1=O` | 17.99 | 4.543 | -2.439 |
| 3 | `[H][C@@]12COC[C@H](c3nc(C)no3)[C@]1([H])CN(C(=O)Cc1cccc(F)c1)C2` | - | 0.4794 | - |
| 4 | `CN(C)Cc1cc(=O)n2c(n1)CN(S(=O)(=O)C1CC1)CCC2.O=C(O)C(F)(F)F` | - | -11.68 | - |
| 5 | `CCn1ccnc1CN1CCCN(C(=O)Cn2nc(C)cc2C)CC1` | 3.759 | -5.611 | 12.05 |
| 6 | `COc1nc2cc(C)ccc2cc1CN(C)Cc1cc(C)[nH]n1.O=C(O)CC(O)(CC(=O)O)C(=O)O` | - | -37.01 | - |
| 7 | `COc1cc(-c2cc(C3CCOC3)c(C#N)c(N)n2)ccc1O` (stereo unspecified) | 12.19 | -17.47 | 5.159 |
| 8 | `O=C(NCc1ccco1)[C@@H]1CCO[C@@H]2CCN(c3ccncn3)C[C@H]21` | 3.393 | - | 3.173 |
| 9 | `Cc1cc(C)c(CNC(=O)NCCCNc2ccccn2)c(=O)[nH]1` | 1.44 | -1.154 | 0.8537 |
| 10 | `O=C1NCC2(CCCN(C(=O)c3c[nH]nc3-c3cccs3)C2)O1` (stereo unspecified) | -0.1372 | 9.88 | 2.237 |
| 11 | `COc1ccc2nnc(CCCC(=O)NCCC3=CCCCC3)n2n1` | 8.455 | -6.575 | 5.249 |
| 12 | `Cc1cc(-c2cc(N)c(=O)n(CC(=O)NC3CCCCC3)n2)c(C)o1` | 1.542 | 2.979 | 4.192 |
| 13 | `Cc1cc(CN(Cc2cccnc2)CC2CCCO2)on1` (stereo unspecified) | 2.836 | -19.93 | -3.165 |
| 14 | `CCCn1cnnc1CNC(=O)CC1C(=O)NCCN1C(C)C` (stereo unspecified) | 0.2038 | -0.1276 | 13.49 |
| 15 | `Cn1cnnc1C1CCCN(C(=O)Cc2ccc3c(c2)OCCO3)C1` (stereo unspecified) | 6.359 | 4.312 | 7.179 |
| 16 | `COC(=O)c1cccn1C1CCN(Cc2cccc(C(N)=O)c2)CC1` | 1.367 | 6.043 | -6.971 |
| 17 | `CN1CCCn2c(nc(CNS(=O)(=O)C3CC3)cc2=O)C1.O=C(O)C(F)(F)F` | - | -11.72 | - |
| 18 | `CN(C1CCN(c2ccccn2)CC1)S(=O)(=O)N1CCOCC1` | 5.225 | 4.743 | -10.74 |
| 19 | `CCOCc1cnc2n1CCN(C(=O)c1ccoc1C)C2C` (stereo unspecified) | -1.202 | 11.86 | 0.6188 |
| 20 | `O=C(O)C(F)(F)F.[H][C@@]12CN(Cc3ccccc3F)C[C@H](C(=O)N3CCCO3)[C@]1([H])CCO2` | - | -0.2463 | - |
| 21 | `[H][C@@]12CCN(c3ccc(C)nn3)C[C@]1(C(=O)N1CCCC1)CCO2` | - | -5.586 | - |
| 22 | `FC(F)(F)COc1ccc(CSCc2ccon2)cn1` | 4.396 | -15.04 | 2.408 |
| 23 | `CSCC[C@@H](CO)NC(=O)c1sc(-c2ccccc2Cl)nc1C` | 1.721 | 18.94 | 1.01 |
| 24 | `Cc1nc(C)c(C(=O)N2Cc3ccccc3OCC2Cn2ccnc2)s1` (stereo unspecified) | -0.4415 | -1.893 | -0.2427 |
| 25 | `Cc1cc(C)n(CC2CN(Cc3cccc(C(N)=O)c3)CCO2)n1` (stereo unspecified) | 0.2047 | -7.367 | 9.731 |
| 26 | `COc1ccc(S(=O)(=O)N2CCn3cnc(COCC4CC4)c3C2)cc1` | 3.495 | 4.039 | -3.1 |
| 27 | `Cc1nc(CN2CCc3ncnc(-c4cccnc4)c3CC2)cs1` | -6.968 | - | 0 |
| 28 | `Cc1cnn(CCNCCCOc2ccc(C#N)cc2)c1` | 0.546 | 9.615 | -6.638 |
| 29 | `CC(C)N(C)[C@@H]1CCN(C(=O)c2ccc[nH]2)[C@H]1Cc1cnn(C)c1` | 0.9104 | 5.464 | 1.854 |
| 30 | `CN(C)C(CNC(=O)NCCS(C)(=O)=O)c1ccco1` (stereo unspecified) | 4.076 | -4.529 | 0 |
| 31 | `CC(C)(C(=O)NCCCc1nc2ccccc2[nH]1)n1cc(Cl)cn1` | 6.963 | 1.983 | 9.921 |
| 32 | `O=C(O)C(F)(F)F.O=C(O)CCC(=O)N1CCN(CC2CC2)c2ncccc2C1` | - | 4.452 | - |
| 33 | `Cn1ncc(N2CCC(CNC3CC(C)(C)CC(C)(C)C3)C2)cc1=O` (stereo unspecified) | 0.5585 | -20.62 | 5.055 |
| 34 | `O=C(O)C(F)(F)F.O=C(O)C(F)(F)F.[H][C@]12CC(=O)N(Cc3cccc(C)n3)[C@@]1([H])CCN2Cc1ccco1` | - | -22.86 | - |
| 35 | `COCCN1CCN(Cc2coc(-c3ccccc3Cl)n2)CC1` | -0.5543 | -2.483 | 3.067 |
| 36 | `O=C(O)C(F)(F)F.[H][C@@]12OCCN(C(=O)c3cc(C)[nH]c3C)[C@@]1([H])CC[C@H]2OCCN(C)C` | - | 2.748 | - |
| 37 | `CCCNC(=O)COc1cc(C)c2c(C)nn(-c3ccccc3)c2n1` | -0.1985 | 4.727 | 0.1318 |
| 38 | `CCc1nnc(CN(CC)C(=O)CCc2scnc2C)o1` | -3.344 | -11.97 | 8.403 |
| 39 | `Cc1ccc([C@@H]2CN(S(=O)(=O)c3cc(C)ccc3F)C[C@H]2N(C)C)cc1` | 2.681 | 8.638 | -0.4292 |
| 40 | `COc1ccccc1Oc1ncccc1CNC(=O)[C@@H](C)NC(C)=O` | 4.397 | -2.617 | -4.641 |

Data taken from ChEMBL document CHEMBL3988442, “University of Dundee, Small-Polar-MMV Screening Library” (2021).